Results reported in paper PMC6555819, “Comprehensive study of nuclear receptor DNA binding provides a revised framework for understanding receptor specificity”.

Sequences of proteins named here, by UniProt entry; tags and fusion partners are left off.
UniProt P19793: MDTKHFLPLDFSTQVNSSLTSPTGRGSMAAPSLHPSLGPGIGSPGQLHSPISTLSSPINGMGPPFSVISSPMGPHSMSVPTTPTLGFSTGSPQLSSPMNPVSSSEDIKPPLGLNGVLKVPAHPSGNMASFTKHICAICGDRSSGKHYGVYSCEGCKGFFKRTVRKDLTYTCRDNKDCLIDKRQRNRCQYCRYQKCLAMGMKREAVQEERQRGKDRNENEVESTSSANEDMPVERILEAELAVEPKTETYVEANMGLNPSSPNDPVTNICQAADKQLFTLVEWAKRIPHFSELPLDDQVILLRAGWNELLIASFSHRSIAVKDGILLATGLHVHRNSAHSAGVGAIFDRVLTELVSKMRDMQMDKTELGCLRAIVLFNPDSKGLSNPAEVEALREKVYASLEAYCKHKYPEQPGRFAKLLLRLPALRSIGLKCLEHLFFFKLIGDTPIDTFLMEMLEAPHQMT

Molecular target: retinoid X receptor alpha (RXRα), full-length wild-type human, His-tag cleaved (human) (UniProt P19793)
Test: protein-binding microarray (double-stranded DNA probes), each partner detected by its own antibody; purified RXRα combined with purified partner NR at a 3:1 NR:RXRα ratio (exceptions in Supplementary Data 1), incubated 1 h on the DNA array in PBS pH 7.4, 2% milk, 0.02% Triton X-100, 1 mM DTT, BSA, salmon testes DNA, no ligand; separate arrays probed with anti-RXRα and with an antibody to the partner; agreement of the two profiles taken as heterodimer binding; both purified

binding: binds
Substance: THRα (from UniProt P10827-2)

No constants are given. Whether binding was seen depends on the method and setting. Binding calls can cover weak binding; strength is not graded here.
